The campaign covered roughly 52,000 sequences. About 210 (0.4%) were called active.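 The calls were made as follows: active = gene whose silencing raises cell survival under the drug, median off-target-corrected z-score across its silencing RNAs 2 or more; inactive = the rest.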 This is one part of the list.

A short description of the assay: Resistance to Poly (ADP-Ribose) Polymerase inhibitor: Gene Identification via Genome-wide siRNA Screen. The conditions noted are these: mouse BRCA2 R2336H ES cells, olaparib, CellTiter-Glo viability; active compounds read high. An outline of the steps:
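Genome-wide siRNA screen (3 siRNAs/gene, 20 nM) in mouse ES cells carrying hypomorphic BRCA2 R2336H; olaparib 500 nM added 48 h post-transfection, CellTiter-Glo viability 72 h later. Normalized to plate-median negative control; MAD z-scores, gene median, seed-adjusted.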
Regarding “CCGUUUCUUCCUAAUUGGUTT against D7Ertd743e”, the z-score was inactive: -0.0778. In the case of GGAAUCAGGACAUUAGUGATT against Olfr868, the z-score is inactive: 0.235. Next, GGACGUACAAAACUUCCUCTT against Hnrpf: inactive: 0.264. As for “GGACAGUGUGUUUUCUUGUTT against 8430438L13Rik”, the figure is inactive: -0.0166; as for GGAUCUCUUUGUUAAUGGUTT against BC012256, inactive: -0.207; as for “GGCUACCGAGACAAUGCUUTT against A030012M09Rik”, inactive: 0.212.

Regarding “GGUGGCUUUGCUGAAGUACTT against 9330129D05Rik”, the z-score is inactive: -1.44. Next, GGGAGUUAUUUAAGAUUCUTT against Has1: inactive: -0.281; GGAGUGGUAUAAGUCGAAATT against Prph1: inactive: 0.337; “GGUUCUGAUGAGUCUCAUGTT against 2010311D03Rik”: inactive: -1.1. Next, CCGGACUUUAGAAUAAUGUTT against Hhex: inactive: 2.14. Next, “GCCACAACUUAAUUUUCUGTT against 9630020C08Rik”: inactive: 0.39.

As for CCCUCUUUACCAGUAUUACTT against Pla2g5, the z-score is inactive: -0.263. Take GCUCCAGUUAAAUGUUACATT against Icam5: the z-score was inactive: -0.14.

For GCUAAAUUACACAUUGACCTT against Vcam1, the z-score is inactive: 1.07.

As to GGAGCAACUAGGAUGAUGATT against Rog, the z-score was inactive: -2.11. Take GCAAAAAUGUUAAGGGUGCTT against Snph: the z-score was inactive: 0.8. On to GCUCUCUUAAAGCAUGUAATT against Cog6, for which the z-score is inactive: -0.415.

Turning to GCUGUUUUAUCUCCAAUGGTT against Araf1, the z-score is active: 1.6. As for GGAACAGUCAUAUAAAGAATT against Grm8, the figure is inactive: 0.0707; as for GGUGCUGGUUUUUAAGAAATT against Hsbp1, inactive: 0.423; as for GGUUACCAUGAGGAGGAUUTT against Spata6, inactive: 0.172. Next, GGAAAUCUAUUUCAUUGACTT against Zcchc10: inactive: -1.17; GCUUUUUAAGACUUUGUCATT against Mcl1: inactive: -3.11. As for GGGUUUCGCUAGAACCAUUTT against BC023181, the figure is inactive: 0.922; as for GGCAACUAUGUAAAACCUUTT against Sorbs1, inactive: 0.653. Consider GGAAAAAAAAAUGACUCCUTT against Kcne1, for which the z-score was inactive: 0.114. As for GGCUCCUGAUUGUUUACCCTT against Hbb-bh1, the figure is inactive: -0.731; as for GGACCAUGUUAGAGCAUGCTT against Traf2, inactive: 1.82.

Take “GGCAGGUAAUAAACAGACATT against 2410141K09Rik”: the z-score was inactive: -0.539.

As to CGGCAACCAAUGCAUACAATT against Tpd52, the z-score was inactive: 0.505. As for GCUUUGUUGGGAGUGAAAUTT against Olfr728, the figure is inactive: -2.11; as for GGGAGAUGUUGUCAGGGUCTT against Rnasel, inactive: 0.99.

Turning to CGAAGAUAUUACUAUUCUGTT against Lama2, the z-score was inactive: 0.473. As to GCCCUCAGAAGACGACGAUTT against Wbscr5, the z-score was inactive: 0.96. Next, GGAUUCUUUGAUUCAAUGUTT against Tlm: inactive: -0.592; “GGUCGGGAUUUAAUUUGUATT against E130103I17Rik”: inactive: -0.76. As for GGCCAUGAAUAUGGAGUCCTT against BC002216, the figure is inactive: 0.453.

Consider CGAAGUGGUUUUAUGUACUTT against Cdkn2b, for which the z-score is inactive: -0.2. As for GGCUGUUGAGAUCCCAGAGTT against Wbscr21, the figure is inactive: -0.923; as for GGGUAUUCAUUGAGUGGUCTT against Gnb4, inactive: 4.4e-05. As for GCUGAUGUAAGUAUUCUAGTT against Pdcl, the figure is inactive: 0.187. Next, GGAAAACAAUUCGUCUGCCTT against Oit1: inactive: -0.45; GGGCACAGGCGAACUAUGUTT against Arhgap25: inactive: 0.524; “GGAUGUGAUCCUCUGUUGCTT against F730014I05Rik”: inactive: -0.633.

For the sequence GGUACCAAAUUGUUUAACATT against Ndufv1, the z-score was inactive: 0.81.

GCUGUUGGGAUUGUACCACTT against Dhx9: the z-score is inactive: 0.183.

Turning to GGUGUAUGGUGGUGGUAGUTT against Perld1, the z-score was inactive: -1.17. As for GGUCAUAGAACUCUGUAUGTT against Slc4a8, the figure is inactive: 0.862.

As for GGAAAAAUACUUGAUCUCCTT against Card10, the z-score was inactive: 2.86.

In the case of GGAAGAACUUGACCCAGAGTT against Pex16, the z-score is inactive: -2.01. As for CCCACAGUAUAGAAUGUGATT against Aldh1a2, the figure is inactive: -0.18. As for “GCCUAAAAAGCUUCUUUAGTT against 2810002O09Rik”, the figure is inactive: 0.714; as for “GGCCAUCGUACGUGUUUGATT against 1110049B09Rik”, inactive: 0.927.

Turning to CCUUAGGCAUGGUCUGGACTT against Gal3st2, the z-score was inactive: -1.82.

GGGCUUACCUAUGUCCCUCTT against Olfr406: the z-score is inactive: 0.777. Next, GGUUAUUCAUGUGGAAAAGTT against BC027556: inactive: 0.529. Next, GGAAAUGGAUCCAGAAUAUTT against Smarca1: inactive: -1.37; GCGCAUCAACAGAGAGGUUTT against Lama2: inactive: -1.59; CCUACAGAAGGUGAAUACUTT against Traf7: inactive: -0.548. As for GGCUGAAUAAAAUAAGUGUTT against Adra1a, the figure is inactive: -0.0879. With GGUGACACAUUGUUUGUUGTT against Hagh, the z-score was inactive: 0.907. Next, “GUCACCAGACUUGUGUGGATT against 9530004A22Rik”: inactive: 0.314; GGAAGUUGACAAAAUAGUGTT against Dlg7: inactive: 0.613; CCACUUCUUUGCAUUUAAGTT against Slc28a3: inactive: 0.83. Turning to GCUGCUCUCCCUUUAUGACTT against Lao1, the z-score is inactive: 0.112.

As to GGAGGAUUAUUACAGAAGGTT against Lhx9, the z-score was inactive: 1.41.

Source of the values: PubChem BioAssay AID1347423 (Functional Genomics Laboratory (NCATS/FGL), 2020).
